Measured values as given in patent US20180362632A1.
Results are given in words; binding and its absence hold for the method and conditions named. Some binding calls cover weakened binding; strength is not graded here.

Chains of the proteins cited; added tags and fusions are not shown. Residues count along the entry.
UniProt P04141, residues 18-144: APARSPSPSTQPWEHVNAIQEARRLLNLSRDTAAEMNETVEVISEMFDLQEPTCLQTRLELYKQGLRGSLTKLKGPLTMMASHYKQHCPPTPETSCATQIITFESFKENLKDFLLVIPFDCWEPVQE

Target: recombinant human GM-CSF protein (human) (UniProt P04141)
Assay: SPR, Biacore T200

binding: binds
B1: Hu50C5-18 (antibody, V domains shown)
VH: EVQLVQSGAEVKKPGSSVKVSCKASGYIFSPYSIHWVRQAPGQGLEWIGYINPSTGYIEYNQHFKDRTTLTADKSTSTAYMELRSLRSEDTAVYYCARGGDYEGYFDYWGQGTTVTVSS
VL: DIQMTQSPSSLSASVGDRVTITCRLNENIYSFLAWYQQKPGKAPKLLVYNAETLAEDVPSRFSGSGSGTDFTLTISSLQPEDFATYYCQQHYGTPYTFGGGTKVEIK
